In paper PMC11316749:
No constants are given. Whether binding was seen depends on the method and setting. In cells and extracts the contact can be indirect. These calls come from enrichment with a bait or labelling near it, and not all partners need be listed.

Target: OTUD6^C183A.FLAG.HA (Drosophila (endogenous locus, fly heads))
Assay: affinity purification with mass spectrometry; anti-FLAG Dynabeads, Drosophila head lysate (10 mM HEPES pH 7.4, 150 mM NaCl, 5 mM MgCl2, 0.5% Triton X-100), 4 °C 30 min, 3xFLAG peptide elution; untagged OTUD6^C183A flies as control; SAINT analysis

| binding | Binder |
| --- | --- |
| binds | DIS3 (enzyme, UniProt Q9VC93 1-982) MQTLREFTRKTKRGNILKIVREHYLRDDIGCGSELCRECFQNEVYQLTSQHANKSTLFKFPHYLVLDTNVVLDQIDVLEEDVLRNVVVLTTVLNEVKHRSSAIYKRFNEIVHDRTRNFYVFVNEHHKETYADREPDETANDRNDRAIRLATKWYDDHLQASQSSKEFERSGKAATRVVLLTDDAANRAKAEAEGILVTTAAEYVKSLEDFPLLMDKLSHKTFDSEKNGLPQYPPHLSMKELLEGLRQNKLLQGTFQASRENYLEGTVNVEKFEKGILIQGRESLNRAVDGDLVAVELLPEAEWSAPSEIVLEEKNVYADEVPSEERAKDENEMLNQVRAAALSAERTPTGRIVGIVRRKWRQYCGILQPSLIEDTNRHIFVPADRKIPRIRIETRQAAMLQNQRIIVTIDTWPRNSRYPHGHFVRSLGPLGDMATENEVILLEHDVPHCKFSDEVLSFLPKMPWTITDEDYSKRVDLRDLYICSVDPPGCTDIDDALHCKELPNGNLEVGVHIADVSHFIRPGNALDMEAAARGTTVYLVGKRIDMVPELLSSNLCSLVGGVERFAFSCVWEVDNEANVLSKRFHKSVIKSKRAMTYEEAQNIIDDATQQNEIAKSLRNLNRLAKILKKRRMDNGALVLASPEIRFQVDSETHEPLEVEVKQMRETNSMVEEFMLLANITVAEHIATEFSECAVLRRHPRPPPTNFDPLVKSARYQGFQVDINSGLELSHSLDKCVKADNPYFNTMIRILTTRCMMQAVYFISGSLQKEEFFHYGLAAPIYTHFTSPIRRYSDIMVHRLLAASIGADSTYAQLLDRKSNEELCHNLNYRHKMAQYAGRASVALNTHLFFRGKEEDEEGYVLFVRKNALQVLIPKYGLEGTLYLKSDKDGKDGVERVKSEIVFTFNEEDHTQRCGDVVFHSFDPVTVRLSLDSSNVQHEKLIFRLVKPYIKGFSVETTTEGTDSQAVSAAPPSKKTKKDKKKK |
| binds | RPS7 (ubiquitination state not told) (protein, UniProt Q9VA91 1-194) MAIGSKIIKPGGSDPDDFEKSIAQALVELEANSDLKPYLRDLHITRAREIEFGSKKAVIIYVPIPQQKVFQKIQIILVRELEKKFSGKHVVVIAERKILPKPTRKARNPLKQKRPRSRTLTAVYDAILEDLVFPAEIVGKRIRVKLDGSQLVKVHLDKNQQTTIEHKVDTFTSVYKKLTGRDVTFEFPDNYLNV |
